{
  "source": "patent US5834431A",
  "about": "“Des-Arg^9 -BK antagonists” (Cortech, Inc., priority 1995, dated 1998)",
  "molecular_target": "T1, B1 receptor (Homo sapiens, UniProt P46663)",
  "T1 construct": "Human lung fibroblasts IMR-90 cells were obtained from ATCC and propagated in DMEM media; host or cells: IMR-90 human lung fibroblasts, treated with interleukin 1b three hours before harvest; membranes",
  "T1 sequence (P46663 1-353)": "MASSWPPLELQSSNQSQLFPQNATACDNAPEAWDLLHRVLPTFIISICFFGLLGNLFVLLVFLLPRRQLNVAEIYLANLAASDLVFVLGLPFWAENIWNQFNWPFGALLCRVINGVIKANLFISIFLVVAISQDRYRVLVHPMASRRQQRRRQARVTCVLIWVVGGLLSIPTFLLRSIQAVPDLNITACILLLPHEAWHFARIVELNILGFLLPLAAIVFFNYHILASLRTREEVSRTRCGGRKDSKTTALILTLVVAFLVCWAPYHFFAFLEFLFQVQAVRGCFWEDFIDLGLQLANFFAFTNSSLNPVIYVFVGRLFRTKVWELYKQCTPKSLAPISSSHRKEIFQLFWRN",
  "assay": "Human B1 binding, IL-1b-treated IMR-90 membranes, 3H-des-Arg9-Kallidin",
  "method": "Human lung fibroblasts IMR-90 cells were obtained from ATCC and propagated in DMEM media in […] roller bottles until confluent. Three hours prior to harvesting, the cells were treated with Interleukin lb (200 pg/ml). Human BK2 clones were propagated in F12 media until confluent. Preparation of membranes for binding assays was carried out by scraping cells from roller bottles in ice cold PBS and centrifuging at 1000 ×g, at 4° C. for 15 minutes. The supernatant was discarded and pellet resuspended in Buffer A consisting of 25 mM TES(pH 6.8) with 2 uM 1,10-Phenanthroline, and centrifuged at 27,000 ×g for 15 min. this was then repeated. The final pellet was resuspended in Buffer B (Buffer A with 2 uM Captopril, 140 ug/Ml Bacitracin, 0.1%BSA), and stored in 1 ml aliquots, frozen at -20° C. until needed.\nBinding assays were performed by incubating human clone membranes with 0.3 nM ^3 H-Bradykinin or IMR-90 membranes with 0.5 nM ^3 H-des-Arg^9 -Kallidin in the presence of the peptides in assay buffer (Buffer B with 1 mM Dithiotreitol), at room temperature, for 45 minutes. All test compound dilutions were in triplicate. Assays were harvested by quick filtration in a Tomtec Harvester 96, with ice cold wash buffer consisting of 10 mM Tris/HCl, pH 7.5, 100 mM NaCl, 0.02%BSA, onto Wallec printed glassfiber Filtermat \"B\", which had been pre-soaked with 0.1% PEI and previously air-dried.",
  "data": [
    {"molecule": "NCCCC[C@H](NC(=O)[C@@H](N)CCCCN)C(=O)N[C@@H](CCCN=C(N)N)C(=O)N1CCC[C@H]1C(=O)N1C[C@H](O)C[C@H]1C(=O)NCC(=O)N[C@H](C(=O)N[C@@H](CO)C(=O)N[C@@H](C(=O)N1[C@H](C(=O)O)C[C@@H]2CCCC[C@@H]21)C1Cc2ccccc2C1)C1Cc2ccccc2C1", "note": "[B9858, Lys- Lys-Arg-Pro-Hyp-Gly-Igl-Ser-DIgl-Oic]", "values": [
      {"measurement": "IC50", "value": 0.0794, "unit": "nM"}
    ]}
  ]
}
